Results from publication doi:10.1101/2020.08.14.217505.
No constants are given. Whether binding was seen depends on the method and setting.

Target: M. jannaschii MtrA (M. jannaschii) (UniProt Q58261)
Assay: SEC-MALS

binding: no binding
B1: M. jannaschii MtrA (protein, UniProt Q58261 1-170)
chain: MANKREPAPGWPIVSGEYVVGNPESCVGVVTLGSHGLEQACIDAGAAIAGPCHTENLGIEKVVANYISNPNIRFMILCGSEVQGHITGQCFKALWENGIGDDGGIIGAKGAIPFLENVNKEAVERFRRQIVEVVDLIDCEDIGKITQAIKECLSKDPGAIDEDPFIIELE
